Results reported in PubChem BioAssay AID540276 (National Center for Advancing Translational Sciences (NCATS), 2011).
Several values for one entry are separate records, joined by “and”; a condition that tells them apart may be missing. Equal values may be shown once. Among all 300,000 compounds or so, about 5,400 (1.8%) were called active. The shares of active, inactive and inconclusive entries below differ from those in the screen. Calls follow the shape of the full dose curve; tested in HEK293 cells. A potency beside an inconclusive call is a rough fit, not a confirmed value.

Test: qHTS for inhibitors of binding or entry into cells for Marburg Virus
Conditions: Marburg virus pseudotyped entry inhibition, cell reporter; series mostly up to 37.8 µM
Potency is read from the fitted curve at half-maximal effect.

Compound	Potency
CC(=O)c1c(C(C)=O)c(C)n(-c2nc(-c3ccc(Br)cc3)c(C)s2)c1C	inconclusive: 23.1 µM [inhibitor, single point]
Cc1cc(N2CCCCC2)nc2ccc(NC(=O)CCC(=O)N3CCN(c4ccccc4)CC3)cc12	inconclusive: 6.31 µM [activator, partial curve, poor fit]
O=C(CNC1CCCCC1)Nc1cccc([N+](=O)[O-])c1	inactive
O=C(NNC(=O)c1ccccc1[N+](=O)[O-])Nc1ccc(Cl)cc1	inconclusive: 11.2 µM [activator, partial curve, poor fit]
COc1ccc(-c2nnc(NC(=O)CS(=O)(=O)c3ccc(F)cc3)o2)cc1	inconclusive: 12.6 µM [activator, single point]
O=C(Oc1ccc(/C=N/NC(=O)c2ccccn2)cc1)c1cccc(F)c1	inactive
Cc1ccc(S(=O)(=O)NCC(=O)N/N=C/c2ccc(Cl)cc2)cc1	inactive
COc1ccc(CN(C)C(=O)C2CSC3(C)CCC(=O)N23)cc1 (stereo not drawn)	inconclusive: 2.82 µM [inhibitor, single point]
CCOc1ccc(NC(=O)Cc2c(C(=O)O)n(C)c3ccccc23)cc1	inactive
Cn1ccs/c1=N\C(=O)Nc1cccc(Cl)c1	inactive
Cc1cc(C)nc(N2CCC(C(=O)Nc3cccc(C(F)(F)F)c3)CC2)n1	inconclusive: 0.0058 µM [inhibitor, full curve, poor fit]
CC1CN=C(Nc2ccc(N(C)C)cc2)S1 (stereo not drawn)	inactive
CCN(CC)CCCNc1cc(C(F)(F)F)c(C#N)c2nc3ccccc3n12	inconclusive: 22.4 µM [inhibitor, partial curve, poor fit]
O=c1c(O)c(-c2cc(O)c(O)c(O)c2)oc2cc(O)cc(O)c12	active: 22.3 µM and active: 4.47 µM
CCOC(=O)C1=C(O)/C(=C/c2cn(CC(=O)NCC3CCCO3)c3ccccc23)SC1=Nc1ccc(C)cc1 (stereo not drawn)	inconclusive: 5.8 µM [inhibitor, partial curve]
C/C(=N\NC(=S)NCc1ccccc1)c1ccc(Cl)cc1	inconclusive: 8.91 µM [inhibitor, partial curve, poor fit]
O=C(CC(C(=O)O)c1ccc(Cl)cc1)c1ccccc1 (stereo not drawn)	inactive
Cc1cccc(NC(=O)c2ccc3nccnc3c2)n1	inconclusive: 3.16 µM [activator, full curve, poor fit]
CCN(CC)CCn1c(NCc2cccc(OC)c2)nc2ccccc21	inactive
COc1ccc(OC)c(S(=O)(=O)N2CCC(C(=O)NCc3ccc4c(c3)OCO4)CC2)c1	inconclusive: 4.47 µM [activator, partial curve, poor fit]
Cc1cc(C)cc(NC(=O)CCCc2nc(-c3ccco3)no2)c1	inactive
O=C(Nc1cccc(C(F)(F)F)c1)/C(=C/c1ccco1)NC(=O)c1cccs1	inactive
CCN1C(=O)N[C@@H](CCc2ccccc2)[C@@H](C(=O)OC)[C@H]1C	inconclusive: 0.0299 µM [activator, full curve, poor fit]

An excerpt of these results, with each value named.
Cc1ccc(S(=O)(=O)NCC(=O)N/N=C/c2ccc(Cl)cc2)cc1
  Potency: inactive
COc1ccc(CN(C)C(=O)C2CSC3(C)CCC(=O)N23)cc1 (stereo not drawn)
  Potency: inconclusive: 2.82 µM [inhibitor, single point]
CCOc1ccc(NC(=O)Cc2c(C(=O)O)n(C)c3ccccc23)cc1
  Potency: inactive
Cn1ccs/c1=N\C(=O)Nc1cccc(Cl)c1
  Potency: inactive

Later entries.

Compound	Potency
CC(C)[C@@H](OCc1ccccc1)[C@H](C)/C=N\OC[C@@H](O)[C@@H]1O[C@@H]2OC(C)(C)O[C@@H]2[C@H]1O	inactive
CCOC(=O)N1CCN(C(=O)c2cc(S(=O)(=O)N3CCc4ccccc43)ccc2OC)CC1	inactive
CCN(C(=O)c1cnc(OC)cc1C(F)(F)F)c1ccc(Cl)cc1Cl	inconclusive: 35.5 µM [inhibitor, single point]
C/C(N)=C(/C#N)C(=O)CSc1nnc(Nc2c(C)cccc2C)s1	inconclusive: 8.91 µM [activator, partial curve, poor fit]
COc1ccc(/C(N)=N/OC(=O)Cc2cccs2)cc1	inconclusive: 0.794 µM [activator, full curve]
COc1cc(CNC2CCCCCCC2)cc(Br)c1OCC#N	active: 11.6 µM
O=C(CSc1nnc(COc2ccc(Cl)cc2)o1)N1c2ccccc2CCc2ccccc21	inconclusive: 6.31 µM [inhibitor, partial curve]
Cc1nc2ccc(NC(=O)c3cc(S(=O)(=O)N4CCOCC4)ccc3C)cc2s1	inconclusive: 35.5 µM [inhibitor, single point]
CN(C)c1ccc(NC(=O)Nc2ccc3c(c2)nnn3C)cc1	inactive
O=C(CCCCCNc1nc(=S)[nH]c2ccccc12)NCCc1ccc(Cl)cc1	inconclusive: 35.5 µM [inhibitor, single point]
Cc1ccc(S(=O)(=O)N2CCCC2CNC(=O)C(=O)NCc2cccs2)cc1 (stereo not drawn)	inconclusive: 0.562 µM [activator, single point]
O=C(Nc1ccc2c(c1)OCO2)C1CCCN1C(=O)OCc1ccccc1 (stereo not drawn)	inactive
COc1ccc(-c2csc(NC(=O)c3ccc(OCC(=O)N4CCOCC4)c(OC)c3)n2)cc1OC	active: 11.2 µM
CC(=O)Nc1ccc(OCc2ccccc2)cc1[N+](=O)[O-]	inconclusive: 7.94 µM [activator, partial curve, poor fit]
O=C(Nc1ccc2c(c1)CCC2)c1cc(F)cc(F)c1	inactive
C[C@H]1CC[C@@H]2[C@@H](C)[C@H]3[C@H](C[C@H]4[C@@H]5CC=C6C[C@@H](O[C@@H]7O[C@H](CO)[C@H](O)[C@H](O[C@@H]8O[C@H](CO)[C@@H](O)[C@H](O)[C@H]8O)[C@H]7O[C@@H]7O[C@@H](C)[C@H](O)[C@@H](O)[C@H]7O)CC[C@]6(C)[C@H]5CC[C@]34C)N2C1	inconclusive: 20.6 µM [inhibitor, single point]
COc1ccccc1NC(=O)N1CCCC(C(=O)Nc2cccc(C)c2C)C1 (stereo not drawn)	inactive
Cc1ccc(C)c(C2(O)CC(C)N(C)CC2C)c1 (stereo not drawn)	inconclusive: 1 µM [inhibitor, partial curve, poor fit]
CCN(CC(=O)Nc1cc(Cl)ccc1C)C(=O)C1CCCCC1	inconclusive: 1.12 µM [inhibitor, full curve, poor fit]
Cc1ccc(C(=O)NCCSc2ccccc2)cc1S(=O)(=O)Nc1ccccc1	active: 23.1 µM
COc1cccc(CC(=O)Nc2nc3c(s2)C(=O)CC(C)(C)C3)c1	inconclusive: 35.5 µM [inhibitor, single point]
C#CCOc1ccc2c(c1)c(C(C)=O)c(C)n2Cc1ccccc1	inconclusive: 17.8 µM [inhibitor, partial curve, poor fit]
C/C(=N\N(C)c1ccccc1)c1c(O)[nH]c(=O)[nH]c1=O	inconclusive: 3.55 µM [inhibitor, full curve]

2 entries from above, reformatted:
O=C(Nc1ccc2c(c1)OCO2)C1CCCN1C(=O)OCc1ccccc1 (stereo not drawn)
  Potency: inactive
C#CCOc1ccc2c(c1)c(C(C)=O)c(C)n2Cc1ccccc1
  Potency: inconclusive: 17.8 µM [inhibitor, partial curve, poor fit]

Remaining list, next part.

Compound	Potency
COc1ccc(-n2ncc3c(NCCCn4ccnc4)ncnc32)cc1	inconclusive: 3.26 µM [activator, single point]
O=C(/C(=C/c1ccc(Cl)cc1)c1nc2ccccc2[nH]1)c1cccs1	inactive
CCc1nnc(NC(=O)CSc2nc3c(cc2C#N)CCC3)s1	inconclusive: 2.82 µM [inhibitor, full curve, poor fit]
N#Cc1nc(-c2ccc(COc3ccccc3)o2)oc1N1CCCCC1	inconclusive: 0.562 µM [activator, full curve, poor fit]
CCCSC(=S)c1c(C)[nH]n(-c2ccccc2)c1=O	inconclusive: 20 µM [inhibitor, single point]
Cc1cc(C)n2[nH]c(=O)c(N=Nc3ccc(S(N)(=O)=O)cc3)c2n1	inconclusive: 25.1 µM [activator, partial curve, poor fit]
CCN(CC)S(=O)(=O)c1ccc(N2CCOCC2)c(NC(=S)NC(=O)c2ccco2)c1	inconclusive: 35.5 µM [inhibitor, single point]
O=C(Nc1cccnc1)C1CCCN(S(=O)(=O)c2cccc3nsnc23)C1 (stereo not drawn)	inactive
CCCn1c(SCC(=O)NC)nnc1C(C)C	inactive
CC(C)N(Cc1ccccc1)C(=O)COC(=O)c1ccccc1SCC(=O)N1CCCC1	inconclusive: 3.55 µM [inhibitor, full curve]
Cc1csc(SCC(=O)Nc2ccccc2)n1	inactive
C/C(=N\NC(=O)c1cc(Cl)ccc1O)c1ccc(Br)s1	inconclusive: 3.16 µM [activator, partial curve, poor fit]
CCCC(=O)Nc1ccc(C(=O)N/N=C/c2ccc([N+](=O)[O-])o2)cc1	active: 11.6 µM
COc1cc(/C=N/O)ccc1OCc1ccc([N+](=O)[O-])cc1	inconclusive: 0.112 µM [activator, full curve, poor fit]
CCCC(=O)N=C1SC2CS(=O)(=O)CC2N1c1ccc(C(C)=O)cc1 (stereo not drawn)	inconclusive: 0.891 µM [activator, full curve, poor fit]
CCCN(Cc1cc2cc(C)ccc2[nH]c1=O)C(=O)c1cccc(OC)c1	inconclusive: 35.5 µM [inhibitor, single point]
COc1ccc(OC)c(NC(=O)[C@H](CSCc2ccccc2)N2Cc3ccccc3C2=O)c1	inconclusive: 35.5 µM [inhibitor, single point]
O=C(OCc1cnc(Cl)s1)c1c(F)cccc1F	inactive
Cc1ccc(N(C(=O)c2csnn2)C(C(=O)NC2CCCC2)c2ccccn2)c(C)c1 (stereo not drawn)	inactive
N#CCC(=O)Nc1ccc(C(=O)OCC(=O)N(C2CCCCC2)C2CCCCC2)cc1	inactive
CCOc1ccc2nc(N3CCOCC3)nc(C)c2c1	inconclusive: 5.62 µM [inhibitor, single point]
COc1cc(/C=C/C(=O)OCC(=O)NC(=O)NC(C)C)ccc1OCC#N	inconclusive: 35.5 µM [inhibitor, single point]
